In article PMC11962092 one finds binding data, which are given here for three molecules.

By UniProt entry, the sequences of proteins in these tests, tags left out.
UniProt P51793: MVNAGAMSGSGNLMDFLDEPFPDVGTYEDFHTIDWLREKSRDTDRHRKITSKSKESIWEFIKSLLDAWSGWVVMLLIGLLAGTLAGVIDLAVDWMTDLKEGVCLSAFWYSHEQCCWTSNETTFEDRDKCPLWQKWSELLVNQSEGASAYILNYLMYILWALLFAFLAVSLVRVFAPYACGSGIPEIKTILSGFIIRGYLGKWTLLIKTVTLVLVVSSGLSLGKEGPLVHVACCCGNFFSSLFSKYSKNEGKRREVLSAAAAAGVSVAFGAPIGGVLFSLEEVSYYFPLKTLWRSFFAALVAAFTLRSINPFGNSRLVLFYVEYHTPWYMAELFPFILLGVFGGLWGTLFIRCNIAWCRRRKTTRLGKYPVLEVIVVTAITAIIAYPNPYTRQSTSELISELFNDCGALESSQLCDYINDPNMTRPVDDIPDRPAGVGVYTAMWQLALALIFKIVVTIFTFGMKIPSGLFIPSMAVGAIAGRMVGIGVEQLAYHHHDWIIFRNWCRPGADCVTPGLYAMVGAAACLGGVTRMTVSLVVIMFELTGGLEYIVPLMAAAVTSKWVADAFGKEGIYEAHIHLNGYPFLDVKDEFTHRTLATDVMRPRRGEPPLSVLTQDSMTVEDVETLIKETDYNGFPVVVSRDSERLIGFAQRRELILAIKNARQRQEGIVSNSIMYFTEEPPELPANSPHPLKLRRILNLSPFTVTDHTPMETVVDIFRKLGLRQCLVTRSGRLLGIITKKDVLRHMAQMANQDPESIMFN

First the molecules themselves.
B1: Venus-ClC-7 (protein, UniProt P51798 1-805)
chain: MANVSKKVSWSGRDRDDEEAAPLLRRTARPGGGTPLLNGAGPGAARQSPRSALFRVGHMSSVELDDELLDPDMDPPHPFPKEIPHNEKLLSLKYESLDYDNSENQLFLEEERRINHTAFRTVEIKRWVICALIGILTGLVACFIDIVVENLAGLKYRVIKGNIDKFTEKGGLSFSLLLWATLNAAFVLVGSVIVAFIEPVAAGSGIPQIKCFLNGVKIPHVVRLKTLVIKVSGVILSVVGGLAVGKEGPMIHSGSVIAAGISQGRSTSLKRDFKIFEYFRRDTEKRDFVSAGAAAGVSAAFGAPVGGVLFSLEEGASFWNQFLTWRIFFASMISTFTLNFVLSIYHGNMWDLSSPGLINFGRFDSEKMAYTIHEIPVFIAMGVVGGVLGAVFNALNYWLTMFRIRYIHRPCLQVIEAVLVAAVTATVAFVLIYSSRDCQPLQGGSMSYPLQLFCADGEYNSMAAAFFNTPEKSVVSLFHDPPGSYNPLTLGLFTLVYFFLACWTYGLTVSAGVFIPSLLIGAAWGRLFGISLSYLTGAAIWADPGKYALMGAAAQLGGIVRMTLSLTVIMMEATSNVTYGFPIMLVLMTAKIVGDVFIEGLYDMHIQLQSVPFLHWEAPVTSHSLTAREVMSTPVTCLRRREKVGVIVDVLSDTASNHNGFPVVEHADDTQPARLQGLILRSQLIVLLKHKVFVERSNLGLVQRRLRLKDFRDAYPRFPPIQSIHVSQDERECTMDLSEFMNPSPYTVPQEASLPRVFKLFRALGLRHLVVVDNRNQVVGLVTRKDLARYRLGKRGLEELSLAQT
B2: Venus-ClC-5 (protein, UniProt P51795 1-816)
chain: MAMWQGAMDNRGFQQGSFSSFQNSSSDEDLMDIPATAMDFSMRDDVPPLDREVGEDKSYNGGGIGSSNRIMDFLEEPIPGVGTYDDFNTIDWVREKSRDRDRHREITNKSKESTWALIHSVSDAFSGWLLMLLIGLLSGSLAGLIDISAHWMTDLKEGICTGGFWFNHEHCCWNSEHVTFEERDKCPEWNSWSQLIISTDEGAFAYIVNYFMYVLWALLFAFLAVSLVKVFAPYACGSGIPEIKTILSGFIIRGYLGKWTLVIKTITLVLAVSSGLSLGKEGPLVHVACCCGNILCHCFNKYRKNEAKRREVLSAAAAAGVSVAFGAPIGGVLFSLEEVSYYFPLKTLWRSFFAALVAAFTLRSINPFGNSRLVLFYVEFHTPWHLFELVPFILLGIFGGLWGALFIRTNIAWCRKRKTTQLGKYPVIEVLVVTAITAILAFPNEYTRMSTSELISELFNDCGLLDSSKLCDYENRFNTSKGGELPDRPAGVGVYSAMWQLALTLILKIVITIFTFGMKIPSGLFIPSMAVGAIAGRLLGVGMEQLAYYHQEWTVFNSWCSQGADCITPGLYAMVGAAACLGGVTRMTVSLVVIMFELTGGLEYIVPLMAAAMTSKWVADALGREGIYDAHIRLNGYPFLEAKEEFAHKTLAMDVMKPRRNDPLLTVLTQDSMTVEDVETIISETTYSGFPVVVSRESQRLVGFVLRRDLIISIENARKKQDGVVSTSIIYFTEHSPPLPPYTPPTLKLRNILDLSPFTVTDLTPMEIVVDIFRKLGLRQCLVTHNGRLLGIITKKDVLKHIAQMANQDPDSILFN

These are yes or no findings as the source states them, for the method shown. Binding seen in cells or lysates may run through a third protein. Some results given as binding are weak or reduced against the parent protein; the word gives no strength. Sequences can lack the tags named with a protein.

The target of the assay is T1, C-terminally HA-tagged T9A (mouse) (UniProt Q9CR23).
T1 sequence: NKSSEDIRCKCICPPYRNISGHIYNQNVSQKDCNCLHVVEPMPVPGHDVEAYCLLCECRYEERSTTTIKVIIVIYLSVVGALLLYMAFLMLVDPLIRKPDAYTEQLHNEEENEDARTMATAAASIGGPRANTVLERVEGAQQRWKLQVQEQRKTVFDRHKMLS
As to the kind of experiment: co-IP; HeLa cells co-transfected with T9A-HA and Venus-CLCs, lysed in HBS with 1% DDM; anti-HA magnetic beads overnight; blots for GFP and HA.
With Venus-ClC-4 (from UniProt P51793 1-760), the binding result is “binds”.
As for B1, the binding entry is on record as “no binding”.
In the case of B2, the binding result is “binds”.
